# No constants are given. Whether binding was seen depends on the method and setting. Binding seen in cells or lysates may run through a third protein. Here binding means that the protein was enriched with, or labelled near, the bait; the list need not be complete.
# The chains behind the UniProt entries cited, without tags or fusion partners. Residues count along the entry.
# UniProt Q80YX1, residues 23-2110: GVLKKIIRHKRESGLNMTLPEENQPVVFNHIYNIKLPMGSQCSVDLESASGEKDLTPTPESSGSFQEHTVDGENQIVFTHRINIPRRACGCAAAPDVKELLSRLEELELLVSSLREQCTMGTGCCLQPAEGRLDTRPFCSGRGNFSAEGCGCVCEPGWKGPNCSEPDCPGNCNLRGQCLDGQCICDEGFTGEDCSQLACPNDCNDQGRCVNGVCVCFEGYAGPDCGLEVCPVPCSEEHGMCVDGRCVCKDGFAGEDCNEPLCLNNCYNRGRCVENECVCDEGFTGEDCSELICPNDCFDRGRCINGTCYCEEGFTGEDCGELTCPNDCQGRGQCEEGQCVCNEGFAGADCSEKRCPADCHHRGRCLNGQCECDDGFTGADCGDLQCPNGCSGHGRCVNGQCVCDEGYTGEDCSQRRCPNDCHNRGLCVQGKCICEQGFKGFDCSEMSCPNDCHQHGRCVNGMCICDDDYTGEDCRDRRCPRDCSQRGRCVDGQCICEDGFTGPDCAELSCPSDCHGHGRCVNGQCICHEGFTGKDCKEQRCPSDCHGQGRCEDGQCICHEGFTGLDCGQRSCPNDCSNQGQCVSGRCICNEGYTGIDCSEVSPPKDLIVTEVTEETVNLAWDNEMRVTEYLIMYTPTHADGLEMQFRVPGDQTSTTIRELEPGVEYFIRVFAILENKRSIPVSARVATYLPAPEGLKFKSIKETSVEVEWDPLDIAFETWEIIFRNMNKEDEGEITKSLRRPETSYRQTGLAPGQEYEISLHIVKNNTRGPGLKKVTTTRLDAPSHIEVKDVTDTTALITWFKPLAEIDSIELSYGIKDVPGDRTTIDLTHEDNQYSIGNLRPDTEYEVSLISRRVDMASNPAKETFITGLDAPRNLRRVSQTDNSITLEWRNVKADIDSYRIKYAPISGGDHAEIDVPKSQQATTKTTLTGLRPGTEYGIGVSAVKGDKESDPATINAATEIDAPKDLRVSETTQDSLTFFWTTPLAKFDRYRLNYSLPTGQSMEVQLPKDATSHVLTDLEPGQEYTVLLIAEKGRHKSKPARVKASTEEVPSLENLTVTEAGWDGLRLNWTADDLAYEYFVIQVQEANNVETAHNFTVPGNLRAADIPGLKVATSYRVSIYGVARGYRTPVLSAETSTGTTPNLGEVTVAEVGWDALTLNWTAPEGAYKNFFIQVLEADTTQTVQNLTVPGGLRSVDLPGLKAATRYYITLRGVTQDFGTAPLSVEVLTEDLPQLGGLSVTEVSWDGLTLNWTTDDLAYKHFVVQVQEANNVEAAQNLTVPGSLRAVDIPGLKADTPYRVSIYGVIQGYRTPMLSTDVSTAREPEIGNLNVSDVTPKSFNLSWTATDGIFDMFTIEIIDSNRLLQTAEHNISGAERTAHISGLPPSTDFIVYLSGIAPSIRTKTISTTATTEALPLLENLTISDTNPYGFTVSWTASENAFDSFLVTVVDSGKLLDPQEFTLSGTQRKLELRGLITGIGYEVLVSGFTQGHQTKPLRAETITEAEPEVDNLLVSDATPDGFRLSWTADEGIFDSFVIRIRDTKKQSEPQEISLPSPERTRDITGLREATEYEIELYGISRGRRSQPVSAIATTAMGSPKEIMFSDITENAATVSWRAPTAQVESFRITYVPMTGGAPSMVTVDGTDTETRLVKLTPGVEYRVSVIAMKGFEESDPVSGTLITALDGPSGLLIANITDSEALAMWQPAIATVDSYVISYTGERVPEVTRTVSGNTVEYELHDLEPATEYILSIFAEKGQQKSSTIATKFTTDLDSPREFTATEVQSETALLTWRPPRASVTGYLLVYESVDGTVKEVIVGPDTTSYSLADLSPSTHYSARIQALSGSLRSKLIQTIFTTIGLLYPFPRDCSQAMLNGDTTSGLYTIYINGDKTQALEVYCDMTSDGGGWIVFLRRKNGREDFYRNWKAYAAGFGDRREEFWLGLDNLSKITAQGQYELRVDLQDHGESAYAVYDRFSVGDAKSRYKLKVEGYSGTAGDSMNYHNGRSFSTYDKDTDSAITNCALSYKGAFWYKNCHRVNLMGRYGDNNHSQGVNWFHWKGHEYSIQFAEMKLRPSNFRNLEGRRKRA
# UniProt Q06890, residues 22-448: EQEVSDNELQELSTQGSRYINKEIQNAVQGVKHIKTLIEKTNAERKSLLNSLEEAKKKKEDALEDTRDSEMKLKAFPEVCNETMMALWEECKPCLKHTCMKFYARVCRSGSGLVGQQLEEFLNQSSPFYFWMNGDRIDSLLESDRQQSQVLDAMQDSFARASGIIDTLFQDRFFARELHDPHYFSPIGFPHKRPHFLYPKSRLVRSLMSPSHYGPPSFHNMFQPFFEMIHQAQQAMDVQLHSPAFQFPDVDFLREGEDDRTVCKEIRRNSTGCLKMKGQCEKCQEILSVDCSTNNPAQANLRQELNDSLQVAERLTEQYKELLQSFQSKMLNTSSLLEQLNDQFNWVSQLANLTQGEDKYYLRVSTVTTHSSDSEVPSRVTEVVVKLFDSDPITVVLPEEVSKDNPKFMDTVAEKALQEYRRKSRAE
# UniProt P58022, residues 26-776: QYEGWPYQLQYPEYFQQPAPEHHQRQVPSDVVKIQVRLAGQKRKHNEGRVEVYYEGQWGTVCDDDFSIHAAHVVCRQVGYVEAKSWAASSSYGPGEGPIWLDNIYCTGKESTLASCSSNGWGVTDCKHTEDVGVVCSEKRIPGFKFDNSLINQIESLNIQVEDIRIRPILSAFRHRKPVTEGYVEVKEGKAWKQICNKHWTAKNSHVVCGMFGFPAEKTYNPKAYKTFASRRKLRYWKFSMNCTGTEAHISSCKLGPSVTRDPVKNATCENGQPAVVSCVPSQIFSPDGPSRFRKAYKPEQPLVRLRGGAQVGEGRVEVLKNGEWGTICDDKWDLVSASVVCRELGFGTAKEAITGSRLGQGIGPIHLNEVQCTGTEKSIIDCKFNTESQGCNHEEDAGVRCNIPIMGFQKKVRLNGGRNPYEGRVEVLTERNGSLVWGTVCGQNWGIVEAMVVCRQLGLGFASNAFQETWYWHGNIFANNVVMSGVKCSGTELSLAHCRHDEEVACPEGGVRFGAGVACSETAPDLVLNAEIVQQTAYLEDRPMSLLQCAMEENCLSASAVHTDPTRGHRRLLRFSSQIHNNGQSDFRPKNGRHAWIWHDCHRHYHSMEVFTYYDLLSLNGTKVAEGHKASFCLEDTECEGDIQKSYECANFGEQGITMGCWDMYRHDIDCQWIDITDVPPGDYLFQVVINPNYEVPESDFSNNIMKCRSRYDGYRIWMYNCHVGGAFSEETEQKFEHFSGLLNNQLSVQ
# UniProt Q62059, residues 24-3357: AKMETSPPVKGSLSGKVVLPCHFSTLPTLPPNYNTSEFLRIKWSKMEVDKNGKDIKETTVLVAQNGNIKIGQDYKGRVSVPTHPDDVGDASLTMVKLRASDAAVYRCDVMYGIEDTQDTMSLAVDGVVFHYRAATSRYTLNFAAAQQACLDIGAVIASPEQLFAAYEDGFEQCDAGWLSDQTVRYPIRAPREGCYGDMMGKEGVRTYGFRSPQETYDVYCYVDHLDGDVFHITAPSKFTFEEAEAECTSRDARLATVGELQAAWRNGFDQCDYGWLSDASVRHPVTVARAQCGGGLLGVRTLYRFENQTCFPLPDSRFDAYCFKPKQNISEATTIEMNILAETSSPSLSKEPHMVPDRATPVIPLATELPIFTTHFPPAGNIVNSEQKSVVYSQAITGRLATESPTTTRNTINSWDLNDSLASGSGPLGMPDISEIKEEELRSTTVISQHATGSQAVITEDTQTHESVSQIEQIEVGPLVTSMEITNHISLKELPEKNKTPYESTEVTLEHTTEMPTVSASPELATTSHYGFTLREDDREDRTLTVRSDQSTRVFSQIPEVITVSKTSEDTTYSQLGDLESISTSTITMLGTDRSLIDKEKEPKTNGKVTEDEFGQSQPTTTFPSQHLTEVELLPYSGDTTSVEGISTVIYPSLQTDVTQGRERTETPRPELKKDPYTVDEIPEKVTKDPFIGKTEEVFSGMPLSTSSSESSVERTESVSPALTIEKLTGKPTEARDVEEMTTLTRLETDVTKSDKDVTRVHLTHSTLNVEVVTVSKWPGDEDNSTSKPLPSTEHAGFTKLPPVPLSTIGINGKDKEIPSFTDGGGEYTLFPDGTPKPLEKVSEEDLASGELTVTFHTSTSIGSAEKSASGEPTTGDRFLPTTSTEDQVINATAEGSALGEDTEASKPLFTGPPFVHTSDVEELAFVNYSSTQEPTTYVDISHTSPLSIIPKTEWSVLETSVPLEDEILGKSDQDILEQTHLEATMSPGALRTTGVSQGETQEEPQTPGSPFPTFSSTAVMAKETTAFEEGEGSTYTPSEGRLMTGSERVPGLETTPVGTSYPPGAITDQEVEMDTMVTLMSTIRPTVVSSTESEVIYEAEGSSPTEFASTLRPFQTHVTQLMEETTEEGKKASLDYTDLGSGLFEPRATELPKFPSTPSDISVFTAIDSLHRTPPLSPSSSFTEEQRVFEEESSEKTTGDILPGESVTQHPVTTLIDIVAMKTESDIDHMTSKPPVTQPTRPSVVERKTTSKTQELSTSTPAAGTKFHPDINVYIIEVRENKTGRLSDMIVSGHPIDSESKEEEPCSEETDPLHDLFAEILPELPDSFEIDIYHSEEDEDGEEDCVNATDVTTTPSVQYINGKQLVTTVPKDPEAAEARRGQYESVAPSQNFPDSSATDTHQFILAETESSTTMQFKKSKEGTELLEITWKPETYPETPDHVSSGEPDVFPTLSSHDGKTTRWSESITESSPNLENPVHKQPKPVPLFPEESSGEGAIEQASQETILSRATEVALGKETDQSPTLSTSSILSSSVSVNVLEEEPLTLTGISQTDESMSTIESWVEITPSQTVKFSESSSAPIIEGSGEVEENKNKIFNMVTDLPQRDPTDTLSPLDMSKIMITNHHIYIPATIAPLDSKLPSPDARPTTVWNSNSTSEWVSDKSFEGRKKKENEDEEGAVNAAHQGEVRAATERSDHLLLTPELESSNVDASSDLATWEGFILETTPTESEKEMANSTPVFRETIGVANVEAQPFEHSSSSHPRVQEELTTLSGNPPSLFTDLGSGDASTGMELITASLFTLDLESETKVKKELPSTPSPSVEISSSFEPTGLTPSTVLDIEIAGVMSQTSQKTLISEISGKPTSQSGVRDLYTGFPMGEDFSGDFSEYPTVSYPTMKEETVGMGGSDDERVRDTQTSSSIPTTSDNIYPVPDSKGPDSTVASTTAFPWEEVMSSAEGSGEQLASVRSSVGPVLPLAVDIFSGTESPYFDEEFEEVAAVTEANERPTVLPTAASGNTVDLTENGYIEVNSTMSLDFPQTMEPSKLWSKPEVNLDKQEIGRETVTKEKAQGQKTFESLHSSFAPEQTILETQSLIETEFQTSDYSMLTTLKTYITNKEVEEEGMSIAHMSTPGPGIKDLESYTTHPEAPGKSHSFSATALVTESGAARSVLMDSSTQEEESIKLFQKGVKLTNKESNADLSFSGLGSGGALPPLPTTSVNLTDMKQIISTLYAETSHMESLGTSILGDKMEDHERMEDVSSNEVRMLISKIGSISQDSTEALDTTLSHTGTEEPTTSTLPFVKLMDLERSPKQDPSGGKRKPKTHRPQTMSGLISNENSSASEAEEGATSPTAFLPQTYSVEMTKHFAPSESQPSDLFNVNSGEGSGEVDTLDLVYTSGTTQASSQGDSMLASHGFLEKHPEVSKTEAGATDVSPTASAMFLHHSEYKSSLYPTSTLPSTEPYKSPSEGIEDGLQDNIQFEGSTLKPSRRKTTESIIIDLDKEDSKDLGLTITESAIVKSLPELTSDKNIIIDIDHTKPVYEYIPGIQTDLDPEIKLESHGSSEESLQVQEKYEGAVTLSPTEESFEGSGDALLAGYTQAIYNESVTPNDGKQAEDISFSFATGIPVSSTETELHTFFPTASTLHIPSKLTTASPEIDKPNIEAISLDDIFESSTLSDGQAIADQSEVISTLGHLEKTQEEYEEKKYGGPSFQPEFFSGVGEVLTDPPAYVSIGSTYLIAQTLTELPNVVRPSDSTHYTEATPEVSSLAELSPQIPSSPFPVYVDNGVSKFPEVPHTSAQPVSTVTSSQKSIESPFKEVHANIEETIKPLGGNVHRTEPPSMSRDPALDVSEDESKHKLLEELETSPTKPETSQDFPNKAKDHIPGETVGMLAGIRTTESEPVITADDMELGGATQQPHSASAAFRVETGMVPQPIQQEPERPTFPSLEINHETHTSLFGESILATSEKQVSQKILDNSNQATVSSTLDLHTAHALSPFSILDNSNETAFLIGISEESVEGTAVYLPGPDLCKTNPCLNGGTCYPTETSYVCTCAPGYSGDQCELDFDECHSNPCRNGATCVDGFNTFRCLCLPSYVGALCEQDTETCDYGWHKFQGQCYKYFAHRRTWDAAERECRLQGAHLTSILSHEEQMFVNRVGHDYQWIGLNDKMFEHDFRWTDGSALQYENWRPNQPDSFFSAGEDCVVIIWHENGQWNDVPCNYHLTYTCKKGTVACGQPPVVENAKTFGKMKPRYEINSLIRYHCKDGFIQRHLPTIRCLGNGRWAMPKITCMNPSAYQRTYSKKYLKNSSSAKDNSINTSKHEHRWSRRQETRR
# Target: murine strep-tagged TNC (mTNC) (mouse) (UniProt Q80YX1)
# Assay: co-purification with recombinant mTNC, 1 M NaCl eluate, mass spectrometry
row,binding,Substance
1,binds,Annexin A2 (from UniProt P07356 2-339)
2,binds,Annexin A5 (from UniProt P48036 2-319)
3,binds,Basement membrane-specific heparan sulfate proteoglycan core protein (from UniProt Q05793 22-3707)
4,binds,Calreticulin (from UniProt P14211 18-416)
5,binds,Clusterin (from UniProt Q06890 22-448)
6,binds,Collagen alpha-1 (COL5A1) (from UniProt O88207 37-1838)
7,binds,Collagen alpha-1 (COL12A1) (from UniProt Q60847 24-3120)
8,binds,Collagen alpha-1 (COL18A1) (from UniProt P39061 27-1774)
9,binds,Collagen alpha-2 (COL4A2) (from UniProt P08122 26-1707)
10,binds,EMILIN-2 (from UniProt Q8K482 34-1074)
11,binds,Endoplasmin (from UniProt P08113 22-802)
12,binds,"Fibronectin (FN1, co-purified with TNC) (from UniProt P11276 33-2477)"
13,binds,Hepatoma-derived growth factor (from UniProt P51859 1-237)
14,binds,Laminin subunit alpha-4 (from UniProt P97927 25-1816)
15,binds,Laminin subunit beta-1 (from UniProt P02469 22-1786)
16,binds,Laminin subunit beta-2 (from UniProt Q61292 36-1799)
17,binds,Laminin subunit gamma-1 (from UniProt P02468 34-1607)
18,binds,Lysyl oxidase homolog 2 (from UniProt P58022 26-776) (enzyme)
19,binds,Metalloproteinase inhibitor 1 (from UniProt P12032 25-205)
20,binds,Pyruvate kinase PKM (from UniProt P52480 1-531) (enzyme)
21,binds,Serine protease HTRA1 (from UniProt Q9R118 23-480) (enzyme)
22,binds,Structural maintenance of chromosomes protein 3 (from UniProt Q9CW03 1-1217)
23,binds,Tenascin-N (from UniProt Q80Z71 27-1560)
24,binds,Versican core protein (from UniProt Q62059 24-3357)

# From patent publication EP3912994A1
